Our source for the binding values is article PMC7348923.

For this experiment, the target named is T1, zebrafish Hspb8 (zebrafish (endogenous in 120 hpf larvae)) (UniProt Q6PFS1).
T1 sequence: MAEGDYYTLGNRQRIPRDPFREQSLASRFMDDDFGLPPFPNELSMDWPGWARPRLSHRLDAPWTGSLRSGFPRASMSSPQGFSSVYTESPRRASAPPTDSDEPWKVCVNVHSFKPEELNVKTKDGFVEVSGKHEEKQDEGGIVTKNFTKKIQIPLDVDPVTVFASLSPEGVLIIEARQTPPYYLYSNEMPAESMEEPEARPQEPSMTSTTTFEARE
Briefly: co-IP; Pierce Co-IP kit; anti-Hspb8 or anti-Bag3 antibody covalently coupled to amine-reactive resin, resin only as negative control; lysate of 30 heat-shocked 120 hpf zebrafish larvae; eluates read by Western blot.

No constants are given. Whether binding was seen depends on the method and setting. Binding seen in cells or lysates may run through a third protein. A result given as binding can be weak or reduced; the word gives no strength.

As to “LC3 I/II (zebrafish (endogenous in 120 hpf larvae))”, the binding entry was “no binding”. With “zebrafish Bag3 (Bcl2-associated athanogene 3)” the entry was “binds”.
